Measurements as given in patent US20180333469A1.
Results are given in words; binding and its absence hold for the method and conditions named. Some results given as binding are weak or reduced against the parent protein; the word gives no strength.

Sequences of proteins named here, by UniProt entry; tags and fusion partners are left off. A change or cut given only in a name is not applied to a line headed by its entry. Residues count along the entry.
UniProt P10646, residues 29-304: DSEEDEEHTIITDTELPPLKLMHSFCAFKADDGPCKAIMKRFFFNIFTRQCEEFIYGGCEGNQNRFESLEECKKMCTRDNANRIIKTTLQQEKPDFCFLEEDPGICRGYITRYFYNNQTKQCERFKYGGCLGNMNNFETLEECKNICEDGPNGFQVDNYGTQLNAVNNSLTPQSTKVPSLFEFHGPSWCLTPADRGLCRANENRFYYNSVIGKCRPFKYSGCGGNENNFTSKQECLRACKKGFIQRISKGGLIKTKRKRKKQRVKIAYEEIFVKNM
UniProt P00742: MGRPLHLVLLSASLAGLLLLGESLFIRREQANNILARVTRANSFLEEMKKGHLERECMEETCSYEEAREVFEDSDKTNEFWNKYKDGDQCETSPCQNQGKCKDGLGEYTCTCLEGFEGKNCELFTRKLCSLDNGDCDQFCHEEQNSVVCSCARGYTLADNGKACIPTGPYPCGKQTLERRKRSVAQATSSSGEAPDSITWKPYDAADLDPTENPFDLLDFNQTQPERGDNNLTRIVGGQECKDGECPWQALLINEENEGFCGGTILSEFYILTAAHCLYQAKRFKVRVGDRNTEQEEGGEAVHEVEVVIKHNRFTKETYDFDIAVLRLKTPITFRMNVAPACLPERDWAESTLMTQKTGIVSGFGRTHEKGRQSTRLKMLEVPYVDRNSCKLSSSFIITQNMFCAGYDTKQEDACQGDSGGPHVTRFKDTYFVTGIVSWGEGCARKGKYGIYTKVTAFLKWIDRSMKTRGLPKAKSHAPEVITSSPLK

Tests used:
[1] = target: tissue factor pathway inhibitor (TFPI) (UniProt P10646); assay: SPR, Biacore 3000
[2] = target: tissue factor pathway inhibitor (TFPI) (UniProt P10646); assay: fXa chromogenic assay, kinetics
[3] = target: tissue factor pathway inhibitor (TFPI) (UniProt P10646); assay: fXa chromogenic assay, kinetics (FIG. 1A-D)
[4] = target: tissue factor pathway inhibitor (TFPI) (UniProt P10646); assay: fXa chromogenic assay, kinetic fit of the reversal of TFPI inhibition (summary of Table 7)
[5] = target: tissue factor pathway inhibitor (TFPI) (UniProt P10646); assay: competition in a fXa chromogenic activity assay with substrate S-2765: SEQ ID NO: 3 (0-20 nM) competes with fXa (1 nM) for TFPI (1 or 4 nM)
[6] = target: tissue factor pathway inhibitor (TFPI) (UniProt P10646); assay: competition in the fXa chromogenic activity assay (Spectrozyme-fXa): SEQ ID NO: 3 (0, 1.0, 5.0 nM) competes with fXa (1.0 nM) for TFPI (0-12 nM)
[7] = target: tissue factor pathway inhibitor (TFPI) (UniProt P10646); assay: competition in the fXa chromogenic activity assay: SEQ ID NO: 3 (0-50 nM) competes with fXa (1.0 or 0.5 nM) for TFPI (1.0 nM); readout is the restored fXa activity
[8] = target: tissue factor pathway inhibitor (TFPI) (UniProt P10646); assay: competition in the fXa chromogenic activity assay (Spectrozyme-fXa): SEQ ID NO: 3 (0, 1, 5 nM) competes with fXa (1 nM) for TFPI (0-12 nM), with fVIIa 1 nM and TF/PCPS (2 nM TF)

Measured: binding

fXa derivative (SEQ ID NO: 3) (from UniProt P00742 80-179; P00742 235-488)
binds: all assays above
